Among the data in patent US20250223332A1 (BOARD OF TRUSTEES OF THE UNIVERSITY OF ILLINOIS, published 2025) are binding values, retold here.

By UniProt entry, the sequences of proteins in these tests, tags left out. Residues count along the entry.
UniProt Q9NR61, residues 27-524: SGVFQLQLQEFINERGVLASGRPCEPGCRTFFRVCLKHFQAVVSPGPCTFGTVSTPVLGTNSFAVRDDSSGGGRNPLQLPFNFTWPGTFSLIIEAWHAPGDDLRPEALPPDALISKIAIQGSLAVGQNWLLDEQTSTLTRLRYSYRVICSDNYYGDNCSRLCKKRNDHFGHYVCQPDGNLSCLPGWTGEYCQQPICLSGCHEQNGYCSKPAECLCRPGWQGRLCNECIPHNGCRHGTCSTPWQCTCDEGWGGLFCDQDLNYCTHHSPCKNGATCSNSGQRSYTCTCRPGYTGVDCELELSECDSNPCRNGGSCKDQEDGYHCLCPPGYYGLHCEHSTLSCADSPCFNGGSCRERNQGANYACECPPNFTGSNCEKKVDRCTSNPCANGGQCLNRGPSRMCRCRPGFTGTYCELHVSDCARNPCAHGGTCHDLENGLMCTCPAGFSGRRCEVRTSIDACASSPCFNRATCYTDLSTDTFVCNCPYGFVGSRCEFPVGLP

These are yes or no findings as the source states them, for the method shown. Some binding calls cover weakened binding; strength is not graded here.

For this test, the target named is T1, hDLL4-Fc (Sino Biologics) (human, UniProt Q9NR61 27-524, limits assumed).
T1 construct: Bought from Sino Biologics; also called Recombinant Fc-tagged hDLL4; recombinant hDLL4; not shown: Fc tag of the bought protein
The test can be described thus: SPR (Biacore T200), hDLL4-Fc on the chip, decoy as analyte.

B1: N410-14Fc (human Notch4 EGF-like repeats 10-14 fused to human IgG Fc) (Fc fusion)
chain: LEDMCLSQPCHGDAQCSTNPLTGSTLCLCQPGYSGPTCHQDLDECLMAQQGPSPCEHGGSCLNTPGSFNCLCPPGYTGSRCEADHNECLSQPCHPGSTCLDLLATFHCLCPPGLEGQLCEVETNECASAPCLNHADCHDLLNGFQCICLPGFSGTRCEEDIDECRSSPCANGGQCQDQPGAFHCKCLPGFEGPRCQ
notes: Produced in HEK293 cells; also called Notch4 peptibody; Notch4 decoy; not shown: human IgG Fc
As for B1, the binding entry is given as “binds”.
